Source: the supplement of paper PMC10849652
The other results are listed elsewhere or left out.

The chains behind the UniProt entries cited, without tags or fusion partners. Where a name states a change or a piece, a line headed by the entry shows the natural chain unless it says otherwise.
UniProt P27708: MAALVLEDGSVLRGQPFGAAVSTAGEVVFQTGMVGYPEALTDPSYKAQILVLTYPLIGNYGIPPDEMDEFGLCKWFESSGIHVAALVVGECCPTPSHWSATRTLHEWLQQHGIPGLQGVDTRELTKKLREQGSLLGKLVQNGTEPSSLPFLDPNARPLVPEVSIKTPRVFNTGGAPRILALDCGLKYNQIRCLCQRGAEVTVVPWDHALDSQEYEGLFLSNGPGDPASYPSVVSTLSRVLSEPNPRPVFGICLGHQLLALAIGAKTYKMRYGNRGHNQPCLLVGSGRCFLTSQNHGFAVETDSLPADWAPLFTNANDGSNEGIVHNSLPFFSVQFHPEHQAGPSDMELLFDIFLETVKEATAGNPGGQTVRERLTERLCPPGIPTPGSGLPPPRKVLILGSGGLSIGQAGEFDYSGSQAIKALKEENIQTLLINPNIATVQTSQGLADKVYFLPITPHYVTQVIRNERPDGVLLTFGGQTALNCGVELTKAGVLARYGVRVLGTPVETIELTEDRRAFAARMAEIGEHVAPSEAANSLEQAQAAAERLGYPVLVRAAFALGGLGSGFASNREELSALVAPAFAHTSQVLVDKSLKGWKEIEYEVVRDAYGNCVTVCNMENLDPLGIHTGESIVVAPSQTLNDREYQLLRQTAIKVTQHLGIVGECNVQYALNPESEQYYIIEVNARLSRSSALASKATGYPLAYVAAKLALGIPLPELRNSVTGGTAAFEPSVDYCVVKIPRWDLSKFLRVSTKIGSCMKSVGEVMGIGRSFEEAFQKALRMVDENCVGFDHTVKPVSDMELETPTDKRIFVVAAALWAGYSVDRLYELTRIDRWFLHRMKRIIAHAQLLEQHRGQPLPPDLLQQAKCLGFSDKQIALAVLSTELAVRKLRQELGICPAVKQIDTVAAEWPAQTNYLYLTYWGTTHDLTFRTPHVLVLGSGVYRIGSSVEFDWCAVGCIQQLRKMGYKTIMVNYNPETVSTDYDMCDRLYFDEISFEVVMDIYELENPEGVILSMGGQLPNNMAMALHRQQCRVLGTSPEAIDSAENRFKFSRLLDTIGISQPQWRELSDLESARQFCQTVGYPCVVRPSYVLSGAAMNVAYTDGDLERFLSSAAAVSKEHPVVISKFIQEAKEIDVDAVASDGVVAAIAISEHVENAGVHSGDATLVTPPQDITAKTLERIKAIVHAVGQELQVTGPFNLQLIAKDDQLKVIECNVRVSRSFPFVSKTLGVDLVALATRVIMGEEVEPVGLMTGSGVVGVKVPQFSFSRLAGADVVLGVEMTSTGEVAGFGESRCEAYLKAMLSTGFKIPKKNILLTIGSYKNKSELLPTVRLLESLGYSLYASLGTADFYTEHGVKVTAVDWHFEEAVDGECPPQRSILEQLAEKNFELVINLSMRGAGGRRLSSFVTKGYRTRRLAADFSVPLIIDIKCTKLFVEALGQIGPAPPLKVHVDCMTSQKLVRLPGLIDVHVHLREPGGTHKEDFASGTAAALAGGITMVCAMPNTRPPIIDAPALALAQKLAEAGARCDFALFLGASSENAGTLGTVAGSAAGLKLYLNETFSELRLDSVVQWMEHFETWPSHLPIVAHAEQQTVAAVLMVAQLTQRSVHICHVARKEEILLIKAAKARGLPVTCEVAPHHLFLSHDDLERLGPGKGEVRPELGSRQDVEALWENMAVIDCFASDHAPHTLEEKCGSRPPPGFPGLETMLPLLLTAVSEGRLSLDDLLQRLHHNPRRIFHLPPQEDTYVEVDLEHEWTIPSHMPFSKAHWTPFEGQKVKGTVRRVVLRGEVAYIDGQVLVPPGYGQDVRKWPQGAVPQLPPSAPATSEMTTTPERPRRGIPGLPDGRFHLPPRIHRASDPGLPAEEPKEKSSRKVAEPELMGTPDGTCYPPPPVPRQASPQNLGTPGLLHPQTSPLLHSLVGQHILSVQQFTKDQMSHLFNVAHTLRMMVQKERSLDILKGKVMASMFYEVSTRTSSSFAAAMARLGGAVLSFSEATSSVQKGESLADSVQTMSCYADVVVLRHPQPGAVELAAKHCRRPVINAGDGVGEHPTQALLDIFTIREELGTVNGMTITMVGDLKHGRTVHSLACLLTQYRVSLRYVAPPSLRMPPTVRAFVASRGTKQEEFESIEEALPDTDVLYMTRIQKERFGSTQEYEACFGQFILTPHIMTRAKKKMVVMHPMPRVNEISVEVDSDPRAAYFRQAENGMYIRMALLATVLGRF
UniProt Q9Y297: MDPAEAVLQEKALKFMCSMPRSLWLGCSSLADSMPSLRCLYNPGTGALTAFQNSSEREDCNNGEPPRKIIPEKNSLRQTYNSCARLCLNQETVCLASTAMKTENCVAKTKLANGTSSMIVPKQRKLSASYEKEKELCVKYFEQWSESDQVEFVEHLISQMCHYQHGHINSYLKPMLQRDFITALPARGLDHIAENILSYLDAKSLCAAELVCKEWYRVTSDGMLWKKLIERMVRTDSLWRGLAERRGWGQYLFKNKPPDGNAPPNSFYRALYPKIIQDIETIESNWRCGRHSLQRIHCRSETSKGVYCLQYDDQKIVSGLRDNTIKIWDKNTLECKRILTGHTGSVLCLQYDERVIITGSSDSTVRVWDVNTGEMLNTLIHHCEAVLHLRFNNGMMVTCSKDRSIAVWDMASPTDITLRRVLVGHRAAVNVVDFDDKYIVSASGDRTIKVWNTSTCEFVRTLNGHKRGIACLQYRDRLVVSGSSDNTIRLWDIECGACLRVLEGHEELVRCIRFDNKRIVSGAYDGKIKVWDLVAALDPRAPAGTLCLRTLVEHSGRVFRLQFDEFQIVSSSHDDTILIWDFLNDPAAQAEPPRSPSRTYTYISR
UniProt Q96LW7: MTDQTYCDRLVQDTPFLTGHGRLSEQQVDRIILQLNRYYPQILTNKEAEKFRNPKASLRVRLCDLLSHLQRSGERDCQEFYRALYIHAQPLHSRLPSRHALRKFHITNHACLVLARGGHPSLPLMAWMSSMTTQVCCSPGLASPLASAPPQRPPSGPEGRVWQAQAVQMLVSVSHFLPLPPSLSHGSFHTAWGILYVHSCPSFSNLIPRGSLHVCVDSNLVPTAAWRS
UniProt Q96KE9: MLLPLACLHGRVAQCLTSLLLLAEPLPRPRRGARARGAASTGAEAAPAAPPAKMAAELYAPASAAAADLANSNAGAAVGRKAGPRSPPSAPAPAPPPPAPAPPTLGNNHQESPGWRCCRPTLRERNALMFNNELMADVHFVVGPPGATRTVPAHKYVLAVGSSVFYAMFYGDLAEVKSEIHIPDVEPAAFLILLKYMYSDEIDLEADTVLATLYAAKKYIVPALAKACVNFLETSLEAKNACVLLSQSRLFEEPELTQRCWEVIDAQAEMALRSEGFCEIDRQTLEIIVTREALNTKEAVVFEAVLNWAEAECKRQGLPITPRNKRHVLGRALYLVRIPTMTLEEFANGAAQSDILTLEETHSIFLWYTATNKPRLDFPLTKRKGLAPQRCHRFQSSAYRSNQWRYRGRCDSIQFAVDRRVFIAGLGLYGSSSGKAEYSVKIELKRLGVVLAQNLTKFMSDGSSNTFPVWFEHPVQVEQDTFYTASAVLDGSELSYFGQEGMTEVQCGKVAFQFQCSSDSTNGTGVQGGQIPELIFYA
UniProt Q96LT7: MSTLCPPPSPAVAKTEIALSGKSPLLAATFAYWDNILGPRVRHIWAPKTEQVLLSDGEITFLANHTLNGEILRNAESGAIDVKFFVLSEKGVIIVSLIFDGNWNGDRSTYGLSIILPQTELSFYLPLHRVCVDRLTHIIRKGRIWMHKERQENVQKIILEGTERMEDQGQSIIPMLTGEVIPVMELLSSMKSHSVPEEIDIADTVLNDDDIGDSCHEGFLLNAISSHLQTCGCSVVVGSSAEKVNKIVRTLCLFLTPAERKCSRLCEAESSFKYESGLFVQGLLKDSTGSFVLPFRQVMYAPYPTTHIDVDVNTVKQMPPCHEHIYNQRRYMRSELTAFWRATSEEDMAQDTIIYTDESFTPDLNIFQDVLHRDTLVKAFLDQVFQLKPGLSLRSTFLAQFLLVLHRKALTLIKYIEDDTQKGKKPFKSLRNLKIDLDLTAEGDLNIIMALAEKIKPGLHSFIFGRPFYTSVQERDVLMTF
UniProt Q13895: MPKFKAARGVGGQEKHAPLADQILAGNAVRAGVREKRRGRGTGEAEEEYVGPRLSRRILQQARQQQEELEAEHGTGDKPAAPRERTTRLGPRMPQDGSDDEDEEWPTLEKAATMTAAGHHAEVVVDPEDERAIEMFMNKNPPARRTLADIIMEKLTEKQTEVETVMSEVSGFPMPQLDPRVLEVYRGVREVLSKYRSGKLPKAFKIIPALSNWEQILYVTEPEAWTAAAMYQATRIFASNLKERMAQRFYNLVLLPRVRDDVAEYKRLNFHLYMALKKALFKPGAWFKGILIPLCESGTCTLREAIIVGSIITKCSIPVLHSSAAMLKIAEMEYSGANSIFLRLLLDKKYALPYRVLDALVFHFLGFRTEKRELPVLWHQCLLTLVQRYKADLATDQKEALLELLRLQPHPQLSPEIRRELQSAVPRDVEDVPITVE
UniProt Q5SNV9: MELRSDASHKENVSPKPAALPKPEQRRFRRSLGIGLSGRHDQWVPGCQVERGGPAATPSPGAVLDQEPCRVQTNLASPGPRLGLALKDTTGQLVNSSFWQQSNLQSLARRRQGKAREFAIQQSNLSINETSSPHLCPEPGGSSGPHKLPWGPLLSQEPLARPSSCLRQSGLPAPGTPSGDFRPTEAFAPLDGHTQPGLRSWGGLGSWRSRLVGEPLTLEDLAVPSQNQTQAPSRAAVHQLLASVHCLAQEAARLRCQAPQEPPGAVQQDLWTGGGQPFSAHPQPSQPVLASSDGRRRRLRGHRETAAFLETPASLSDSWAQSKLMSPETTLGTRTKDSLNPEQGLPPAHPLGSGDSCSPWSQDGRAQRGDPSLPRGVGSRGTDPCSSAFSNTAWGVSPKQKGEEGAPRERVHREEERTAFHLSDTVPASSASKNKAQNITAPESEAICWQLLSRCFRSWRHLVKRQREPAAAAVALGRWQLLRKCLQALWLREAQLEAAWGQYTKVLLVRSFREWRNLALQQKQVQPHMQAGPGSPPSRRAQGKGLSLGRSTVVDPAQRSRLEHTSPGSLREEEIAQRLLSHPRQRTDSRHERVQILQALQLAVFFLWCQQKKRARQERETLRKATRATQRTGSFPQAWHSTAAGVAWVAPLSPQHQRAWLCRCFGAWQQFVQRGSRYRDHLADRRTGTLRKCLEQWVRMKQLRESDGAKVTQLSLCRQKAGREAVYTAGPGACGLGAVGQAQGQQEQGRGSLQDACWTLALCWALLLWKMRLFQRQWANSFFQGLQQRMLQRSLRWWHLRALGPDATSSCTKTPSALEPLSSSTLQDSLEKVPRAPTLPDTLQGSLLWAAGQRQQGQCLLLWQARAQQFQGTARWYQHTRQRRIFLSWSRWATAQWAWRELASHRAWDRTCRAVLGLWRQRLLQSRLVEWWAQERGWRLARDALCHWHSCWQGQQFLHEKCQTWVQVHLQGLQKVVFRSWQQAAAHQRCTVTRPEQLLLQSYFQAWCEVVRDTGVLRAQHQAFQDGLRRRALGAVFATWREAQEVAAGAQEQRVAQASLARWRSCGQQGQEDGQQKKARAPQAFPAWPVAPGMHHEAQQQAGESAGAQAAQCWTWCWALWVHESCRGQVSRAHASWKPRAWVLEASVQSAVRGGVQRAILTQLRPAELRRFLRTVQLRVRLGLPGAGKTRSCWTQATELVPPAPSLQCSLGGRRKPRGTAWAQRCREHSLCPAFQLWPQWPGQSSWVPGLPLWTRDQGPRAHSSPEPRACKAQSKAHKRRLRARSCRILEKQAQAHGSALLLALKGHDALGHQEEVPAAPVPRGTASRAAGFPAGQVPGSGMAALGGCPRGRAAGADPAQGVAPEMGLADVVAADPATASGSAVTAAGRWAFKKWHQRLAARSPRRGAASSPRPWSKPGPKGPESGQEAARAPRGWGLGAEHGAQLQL
UniProt Q7L1Q6: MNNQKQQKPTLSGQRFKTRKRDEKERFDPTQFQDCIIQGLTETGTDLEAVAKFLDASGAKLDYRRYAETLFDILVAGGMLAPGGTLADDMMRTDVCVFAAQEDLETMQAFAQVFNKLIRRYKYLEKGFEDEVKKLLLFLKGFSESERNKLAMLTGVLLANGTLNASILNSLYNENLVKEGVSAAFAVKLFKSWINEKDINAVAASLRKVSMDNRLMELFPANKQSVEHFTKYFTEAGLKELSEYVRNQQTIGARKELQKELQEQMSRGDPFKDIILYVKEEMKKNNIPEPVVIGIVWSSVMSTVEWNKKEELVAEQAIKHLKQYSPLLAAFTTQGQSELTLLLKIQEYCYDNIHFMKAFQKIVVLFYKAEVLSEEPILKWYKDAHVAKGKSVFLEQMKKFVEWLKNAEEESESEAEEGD
UniProt Q7Z6I8: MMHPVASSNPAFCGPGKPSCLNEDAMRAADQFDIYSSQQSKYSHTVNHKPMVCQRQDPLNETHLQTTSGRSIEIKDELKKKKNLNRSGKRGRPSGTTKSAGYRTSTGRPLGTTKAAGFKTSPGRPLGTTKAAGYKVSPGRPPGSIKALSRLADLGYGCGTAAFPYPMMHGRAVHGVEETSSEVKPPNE

Tests used:
Assay in all cases: log2 fold change, soluble protein after heating vs DMSO (PISA); higher = thermal stabilisation; K562 cells, 10 uM, 30 min; active = over 0.2 and 3.5 SD of the protein, either way, in both replicates (recomputed)
saracatinib = compound: CN1CCN(CCOc2cc(OC3CCOCC3)c3c(Nc4c(Cl)ccc5c4OCO5)ncnc3c2)CC1 [saracatinib]
Procedure, shortened: (§1)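 K562 cells at 2×10^6 cells/mL were treated for 30 min with 10 μM compound, and aliquots were heated for 3 min over 48°C-58°C before pooling. Extraction used PBS with 0.5% NP-40 at 4°C, and soluble protein was the supernatant after 21,000xg for 90 min, measured by TMTpro 16plex LC-MS/MS with channel sums equalised. Thermal stability values, relative to control samples and from duplicates, are log2 fold changes.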

sotrastaurin = compound: CN1CCN(c2nc(C3=C(c4c[nH]c5ccccc45)C(=O)NC3=O)c3ccccc3n2)CC1 [sotrastaurin]
Procedure, shortened: as §1

Tubastatin A = compound: CN1CCc2c(c3ccccc3n2Cc2ccc(C(=O)NO)cc2)C1 [Tubastatin A]
Procedure, shortened: as §1

[1] = compound: CNC(=O)C1=CC=CC=C1NC2=NC(=NC=C2Cl)NC3=C(C=C(C=C3)N4CCOCC4)OC
Procedure, shortened: as §1

defactinib = compound: CNC(=O)c1ccc(Nc2ncc(C(F)(F)F)c(NCc3nccnc3N(C)S(C)(=O)=O)n2)cc1 [defactinib]
Procedure, shortened: as §1

rucaparib = compound: CNCc1ccc(-c2[nH]c3cc(F)cc4c3c2CCNC4=O)cc1 [rucaparib]
Procedure, shortened: as §1

[2] = compound: CNc1nc(-c2ccc3c(N)n[nH]c3c2)cc(N2C[C@@H](C(=O)NC3CCCCC3)CC[C@H]2C)n1
Procedure, shortened: as §1

encorafenib = compound: COC(=O)N[C@@H](C)CNc1nccc(-c2cn(C(C)C)nc2-c2cc(Cl)cc(NS(C)(=O)=O)c2F)n1 [encorafenib]
Procedure, shortened: as §1

[3] = compound: COC(=O)[C@H](CCSC)NC(=O)C1=C(C=C(C=C1)NC[C@H](CS)N)C2=CC=CC=C2
Procedure, shortened: as §1

alvocidib = compound: CN1CC[C@H](c2c(O)cc(O)c3c(=O)cc(-c4ccccc4Cl)oc23)[C@H](O)C1 [alvocidib]
Procedure, shortened: as §1

Measured: log2 fold change

CALB1 (UniProt P05937)
inactive: saracatinib 0.033 | sotrastaurin 0.008 | Tubastatin A -0.026 | [1] 0.02 | defactinib 0.013 | rucaparib -0.07 | [2] -0.14 | encorafenib 0.023 | [3] 0.021

BST2 (UniProt Q10589)
inactive: saracatinib 0.003 | sotrastaurin -0.097 | Tubastatin A -0.055 | [1] -0.063 | defactinib 0.03 | rucaparib -0.008 | [2] -0.07 | encorafenib 0 | [3] 0.012

C1orf112 (UniProt Q9NSG2)
inactive: saracatinib -0.237 | sotrastaurin -0.119 | Tubastatin A 0.024 | defactinib -0.052 | rucaparib -0.008 | [2] -0.113 | encorafenib -0.097 | [3] -0.005

CALM1 (UniProt G3V361)
inactive: saracatinib 0.13 | sotrastaurin -0.067 | [1] -0.105 | [2] 0.079

BZW2 (UniProt Q9Y6E2)
inactive: saracatinib -0.007 | sotrastaurin -0.032 | Tubastatin A -0.004 | [1] -0.006 | defactinib -0.057 | rucaparib -0.022 | [2] 0.001 | encorafenib 0.058 | [3] -0.026

CARD8 isoform 5 (UniProt Q9Y2G2)
inactive: saracatinib -0.035 | sotrastaurin 0.023 | Tubastatin A 0 | [1] -0.027 | defactinib -0.192 | rucaparib -0.099 | [2] 0.01 | encorafenib -0.137 | [3] 0.02

CAD (UniProt P27708)
inactive: saracatinib -0.112 | sotrastaurin 0.022 | Tubastatin A -0.044 | [1] -0.211 | defactinib 0.097 | rucaparib 0.132 | [2] 0.052 | encorafenib 0.052 | [3] -0.051

CARD11 (UniProt Q9BXL7)
inactive: saracatinib -0.264 | sotrastaurin -0.064 | alvocidib 0.141 | [2] 0.11

BTRC (UniProt Q9Y297)
inactive: saracatinib 0.067 | sotrastaurin -0.042 | Tubastatin A 0.087 | [1] -0.069 | defactinib -0.042 | [2] -0.092 | [3] -0.017

CAMSAP1 isoform 3 (UniProt Q5T5Y3)
inactive: saracatinib -0.084 | sotrastaurin -0.175 | Tubastatin A 0.071 | [1] -0.191 | defactinib 0.051 | rucaparib 0.048 | [2] -0.071 | encorafenib 0.065 | [3] 0.017

C22orf39 (UniProt Q6P5X5)
inactive: saracatinib 0.076 | sotrastaurin -0.028 | Tubastatin A -0.013 | [1] 0.129 | [2] 0.056

CAB39L (UniProt Q9H9S4)
inactive: saracatinib 0.043 | sotrastaurin -0.213 | Tubastatin A 0.056 | [1] 0.049 | defactinib -0.09 | rucaparib 0.003 | [2] 0.015 | encorafenib -0.144 | [3] 0.043

BTAF1 (UniProt O14981)
inactive: saracatinib 0.087 | sotrastaurin 0.001 | Tubastatin A -0.041 | [1] -0.027 | defactinib -0.074 | rucaparib -0.089 | [2] -0.012 | encorafenib 0.026 | [3] 0.007

CARD19 isoform 2 (UniProt Q96LW7)
inactive: saracatinib 0.027 | alvocidib -0.102 | Tubastatin A 0.095 | defactinib 0.125 | rucaparib 0.034 | [2] -0.023 | encorafenib 0.046 | [3] 0.053

2 records drawn at random from those above:
BTAF1 (UniProt O14981)
inactive: saracatinib 0.087 | sotrastaurin 0.001 | Tubastatin A -0.041 | [1] -0.027 | defactinib -0.074 | rucaparib -0.089 | [2] -0.012 | encorafenib 0.026 | [3] 0.007

C22orf39 (UniProt Q6P5X5)
inactive: saracatinib 0.076 | sotrastaurin -0.028 | Tubastatin A -0.013 | [1] 0.129 | [2] 0.056

More records:

BTBD6 (UniProt Q96KE9)
inactive: saracatinib -0.031 | sotrastaurin 0.021 | Tubastatin A 0.211 | [1] -0.141 | defactinib -0.131 | rucaparib 0.327 | [2] 0.082 | encorafenib -0.101 | [3] -0.009

C16orf58 (UniProt Q96GQ5)
inactive: saracatinib 0.042 | sotrastaurin 0.04 | Tubastatin A -0.003 | [1] -0.005 | defactinib -0.031 | rucaparib -0.012 | [2] -0.063 | encorafenib 0.051 | [3] -0.02

C2orf76 (UniProt Q3KRA6)
inactive: saracatinib -0.012 | sotrastaurin -0.263 | Tubastatin A 0.093 | [1] 0.069 | defactinib 0.044 | rucaparib 0.137 | [2] 0.049 | encorafenib 0.066 | [3] -0.263

C9orf72 (UniProt Q96LT7)
inactive: saracatinib 0.071 | sotrastaurin 0.129 | Tubastatin A -0.126 | [1] -0.071 | defactinib -0.056 | [2] -0.021 | [3] 0

C4orf33 (UniProt Q8N1A6)
inactive: saracatinib -0.027 | sotrastaurin -0.091 | Tubastatin A -0.024 | [1] 0.048 | defactinib -0.071 | rucaparib 0.091 | [2] 0.013 | encorafenib -0.076 | [3] 0.042

CA8 (UniProt P35219)
inactive: saracatinib -0.054 | sotrastaurin -0.023 | Tubastatin A 0.084 | [1] 0.118 | defactinib -0.163 | rucaparib 0.068 | [2] 0.018 | encorafenib 0.024 | [3] 0.014

C6orf136 isoform 4 (UniProt Q5SQH8)
inactive: saracatinib 0.087 | sotrastaurin -0.072 | Tubastatin A -0.153 | [1] -0.112 | rucaparib 0.01 | [2] -0.3 | encorafenib -0.1

BUB1B isoform 3 (UniProt O60566)
inactive: saracatinib -0.071 | sotrastaurin -0.113 | Tubastatin A 0.031 | [1] 0.042 | defactinib -0.076 | rucaparib 0.006 | [2] -0.031 | encorafenib 0.097 | [3] -0.029

BYSL (UniProt Q13895)
inactive: saracatinib -0.042 | sotrastaurin -0.101 | Tubastatin A 0.136 | [1] 0.034 | defactinib -0.004 | rucaparib -0.004 | [2] 0.094 | encorafenib 0.034 | [3] -0.073

BTN2A1 (UniProt Q7KYR7)
inactive: saracatinib -0.084 | alvocidib -0.094 | Tubastatin A 0.047 | [1] 0.015 | defactinib -0.086 | rucaparib -0.004 | [2] 0.092 | encorafenib -0.082 | [3] 0.093

C4A (UniProt P0C0L4)
inactive: saracatinib 0.108 | sotrastaurin 0.268 | Tubastatin A -0.039 | [1] -0.021 | defactinib 0.072 | rucaparib -0.075 | [2] -0.188 | encorafenib -0.047 | [3] -0.039

C12orf65 (UniProt Q9H3J6)
inactive: saracatinib 0.11 | sotrastaurin 0.068 | alvocidib 0.354 | [1] 0.024 | defactinib 0.078 | rucaparib 0.069 | [2] 0.07 | encorafenib 0.034 | [3] 0.066

CA1 (UniProt P00915)
inactive: saracatinib 0.014 | sotrastaurin -0.001 | Tubastatin A -0.013 | [1] 0.009 | defactinib -0.057 | rucaparib -0.036 | [2] -0.016 | encorafenib -0.002 | [3] 0.004

C7orf50 (UniProt Q9BRJ6)
inactive: saracatinib -0.129 | alvocidib 0.023 | Tubastatin A 0.076 | defactinib 0.073 | [2] 0.028 | [3] -0.062

C1orf167 isoform 2 (UniProt Q5SNV9)
inactive: saracatinib -0.419 | sotrastaurin 0.017 | alvocidib 0.193 | [1] -0.152 | defactinib 0.166 | [2] -0.08 | [3] -0.085

BZW1 isoform 3 (UniProt Q7L1Q6)
inactive: saracatinib -0.083 | sotrastaurin -0.207 | Tubastatin A 0.047 | [1] -0.054 | defactinib -0.141 | rucaparib 0.128 | [2] 0.027 | encorafenib 0.158 | [3] -0.1

CAMK2G isoform 6 (UniProt Q13555)
inactive: saracatinib -0.005 | sotrastaurin -0.088 | Tubastatin A -0.012 | [1] 0.25 | defactinib 0.14 | rucaparib 0.061 | [2] 0.129 | encorafenib 0 | [3] -0.074

C11orf96 (UniProt Q7Z7L8)
inactive: alvocidib -0.013 | defactinib 0.044 | [3] -0.213

C6orf62 (UniProt Q9GZU0)
inactive: [1] 0.017

C5orf24 (UniProt Q7Z6I8)
inactive: saracatinib 0.206 | Tubastatin A -0.086 | defactinib 0.046 | [2] -0.127 | [3] 0.084

Quoted from above (three entries):
C11orf96 (UniProt Q7Z7L8)
inactive: alvocidib -0.013 | defactinib 0.044 | [3] -0.213

C6orf62 (UniProt Q9GZU0)
inactive: [1] 0.017

C5orf24 (UniProt Q7Z6I8)
inactive: saracatinib 0.206 | Tubastatin A -0.086 | defactinib 0.046 | [2] -0.127 | [3] 0.084
